# Data taken from PubChem BioAssay AID2685 (National Center for Advancing Translational Sciences (NCATS), 2010).
# Out of some 320,000 compounds screened, about 2,100 (0.66%) were called active. The inconclusive results got no clear call from the source; some entries with a clear call stand among them for comparison. Calls come from the whole dose curve; as a rule, active = well fitted inhibition curve with a large enough effect in the signal ratio, with a control signal flat (not every such curve was filed as active); inconclusive = small, poorly fitted or top-dose-only effect, or effect the other way, or a change in a side signal; inactive = flat fitted curve, though single readings scatter; the % refers to the signal ratio. A potency beside an inconclusive call is a rough fit, not a confirmed value.
# Test: qHTS Assay for Lipid Storage Modulators in Drosophila S3 Cells
# Settings: BODIPY lipid droplet fluorescence, 18-24 h, cells fed with added oleic acid; lipid storage change, negative = inhibition: at 46.1 µM (top of the series) unless noted
# Summary of the method: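 Drosophila S3 cells got compounds at several concentrations plus oleic acid (400 uM solution). Laser-scanning cytometry with 488 nm excitation read lipid droplets at 500-530 nm and cells at 575-640 nm. Percent activity was relative to 20 uM Triacsin C.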
# % is set by controls: 0 for no effect and ±100 for the full control effect; potency is the fitted concentration of half-maximal effect.
SMILES,"lipid storage change, negative = inhibition",Potency
O=C(NCc1ccccc1)c1ccc(=O)[nH]n1,inconclusive: 7.23%,
Cc1ccccc1N(CC(=O)N/N=C/c1cc(C)n(-c2ccccc2C)c1C)S(C)(=O)=O,inconclusive: 186%,
OCC[C@@H]1C[C@@H](O)[C@H](O)[C@]2(OCCc3ccccc32)O1,,"inconclusive: 6.51 µM [activator, single point]"
CCc1c(C)c2ccc(OCC(=O)NCC3CCC(C(=O)O)CC3)cc2oc1=O (stereo unspecified),inconclusive: 23.8%,
CC(=O)c1ccc(N2CCN(c3ccc(S(=O)(=O)NCCN(C)C)cc3[N+](=O)[O-])CC2)cc1,inconclusive: -40.1%,
Cc1cc(C)c(-c2csc(Cc3nc(-c4cc5ccccc5oc4=O)cs3)n2)cc1C,,"inconclusive: 3.26 µM [activator, partial curve, poor fit]"
COc1ccc(CCNC(=O)C(=O)NCC2CCCN2S(=O)(=O)c2cccs2)cc1 (stereo unspecified),inconclusive,
Cn1c(=O)c2cc(S(=O)(=O)N3CCC(c4ccccc4)CC3)ccc2n(C)c1=O,inconclusive: 11%,
CCOC(=O)c1c(NC(=O)C2C3C=CC(C3)C2(C)C(=O)O)sc2c1CCCC2 (stereo unspecified),inconclusive: 6.08%,
Cc1sc2nc(C(C)C)nc(SCC(=O)N3CCOCC3)c2c1C,,"inconclusive: 0.0046 µM [activator, full curve]"
O=C(N/N=C/c1ccc(N2CCCCC2)o1)C(O)(c1ccccc1)c1ccccc1,,"inconclusive: 0.184 µM [falling, full curve, poor fit]"
COc1cc(/C=C/C(=O)O)cc(S(=O)(=O)Nc2ccc(S(=O)(=O)N3CCCCC3)cc2)c1OC,,"inconclusive: 29.1 µM [activator, single point]"
Cc1cc(C)c2[nH]c(C(=O)Nc3ccc4c(c3)OCO4)cc2c1,inconclusive: 8.56%,
Cc1ccc(S(=O)(=O)N(C)CC(=O)Oc2ccc(-c3nnco3)cc2)cc1,,"inconclusive: 0.58 µM [activator, single point]"
CCCN1CCN(C(=O)c2cc(COc3ccc4ncccc4c3)on2)CC1,,"inconclusive: 18.4 µM [falling, partial curve]"
O=c1[nH]c2c(Br)cnc([N+](=O)[O-])c2[nH]1,,"inconclusive: 1.3 µM [falling, full curve, poor fit]"
COC(=O)c1ccc(CN2CCCC(C(=O)Nc3cccc(-n4cnnn4)c3)C2)cc1 (stereo unspecified),inconclusive: -19.3%,
Cc1nc(-c2cccc(NC(=O)COc3ccc(Cl)cc3)c2)cs1,,"inconclusive: 6.51 µM [activator, single point]"
COc1ccc(C(=O)OCC(=O)NCCCc2ccccc2)c(OC)c1,inactive: 7.81%,
C/C(=N\O)c1ccn(S(=O)(=O)c2ccc(Cl)cc2)c1,inconclusive: 15.6%,
CCCNC(=O)CN1C(=O)NC(Cc2c[nH]c3ccccc23)C1=O (stereo unspecified),inconclusive: 7.29%,
Nc1cc(C(=O)OCC(=O)NNC(=O)c2cccs2)ccc1Cl,inconclusive: 8.93%,
CCOCCCNC(=O)c1ccc2c(=O)n(Cc3ccc(OC)cc3)c(=O)[nH]c2c1,,"inconclusive: 0.0058 µM [activator, full curve, poor fit]"
CC(=O)c1cccc(NC(=O)CN2CCN(S(=O)(=O)/C=C/c3ccccc3)CC2)c1,inconclusive: 18.9%,

SMILES,"lipid storage change, negative = inhibition",Potency
CCN1CCN(C(=O)NC(c2ccc(C)c(F)c2)C(Cl)Cl)CC1 (stereo unspecified),inconclusive: 4.06%,
COc1ccc(C(=O)Nc2cc(C(F)(F)F)ccc2Cl)cc1OC,inconclusive: 29.9%,
COc1cc(C2CC(=O)N3CN(Cc4ccccc4)CSC3=C2C#N)ccc1OCc1ccccc1 (stereo unspecified),inconclusive: 22.1% [at 9.22 µM],
O=C(NCCC1CCCCN1S(=O)(=O)c1ccccc1)C(=O)NCCN1CCOCC1 (stereo unspecified),,"inconclusive: 4.11 µM [falling, full curve, poor fit]"
Cc1ccc(C)c(NC(=O)C(C)CC2COCCO2)c1 (stereo unspecified),inconclusive: -34.7%,
COc1ccc(-c2nnc(C3CCN(S(=O)(=O)c4ccccc4)CC3)o2)cc1,,"inconclusive: 32.6 µM [falling, single point]"
COc1ccc(S(=O)(=O)NC2CC2)cc1C(=O)N1CCOCC1,inconclusive: -72.8%,
Cc1cc(C)c(C#N)c(OCc2ccc(Cl)nc2)n1,inconclusive: 48.8%,
CCCc1cc(=O)[nH]c(SCC(=O)N2N=C(c3ccc(Cl)cc3)CC2c2ccco2)n1 (stereo unspecified),inconclusive: -28.4%,
CCCNC(=S)N1CCC(n2cnc3ccccc32)CC1,inconclusive: -31.4%,
CCCCCCOc1ccc(C(CC(=O)O)C(N)=O)cc1 (stereo unspecified),inconclusive: 33.3%,
COC(=O)c1ccccc1NC(=O)NCCc1ccc(OC)c(OC)c1,,"inconclusive: 2.06 µM [falling, full curve]"
O=C(Cn1nnc2ccccc2c1=O)N[C@@H](Cc1ccccc1)C(=O)O,inconclusive: 51.6%,
COc1ccc(C(=O)OC(C)C(=O)NC2CCCC2)cc1S(=O)(=O)N1CCOCC1 (stereo unspecified),,"inconclusive: 0.0517 µM [activator, full curve, poor fit]"
CCOC(=O)C(NC(=O)Nc1ccc(O)cc1)(c1ccccc1)C(F)(F)F (stereo unspecified),inactive: 2.59%,
CC(C)Oc1ccc(C(=O)Nc2nnc(C3=COCCO3)o2)cc1,inconclusive: -9.27%,
N#C/C(=C/c1ccc(-c2ccccc2[N+](=O)[O-])o1)C(N)=O,inconclusive: 18.9%,
CCOC(=O)N1CCN(C(=O)Cn2cc3c(n2)CCCC3)CC1,inconclusive: -24.5%,
CCn1c(C)cc(C(=O)CSc2nnc(-c3ccco3)o2)c1C,,"inconclusive: 0.731 µM [activator, single point]"
COc1cc(COCC(O)CN2CCN(Cc3ccc4c(c3)OCO4)CC2)cc(OC)c1OC (stereo unspecified),,"inconclusive: 0.146 µM [rising, full curve, poor fit]"
Cc1cccc(NC(=O)NNC(=O)COc2ccc(Cl)cc2)c1,inconclusive: -27.1%,
Cc1ccc(S(=O)(=O)N(C)C)cc1NC(=S)Nc1cccc2ccccc12,,"inconclusive: 5.17 µM [activator, full curve]"
CC1Cc2ccccc2N1C(=O)CN1CCN(S(=O)(=O)c2cccs2)CC1 (stereo unspecified),inconclusive: -78.2%,
C/C(=N\NC(=O)C1(C)CC1(Br)Br)c1ccc([N+](=O)[O-])cc1 (stereo unspecified),inconclusive: 0.405%,

# Some of these compounds in order of length of the SMILES, ascending.
SMILES,"lipid storage change, negative = inhibition",Potency
CCCNC(=S)N1CCC(n2cnc3ccccc32)CC1,inconclusive: -31.4%,
CCCCCCOc1ccc(C(CC(=O)O)C(N)=O)cc1 (stereo unspecified),inconclusive: 33.3%,
Cc1cccc(NC(=O)NNC(=O)COc2ccc(Cl)cc2)c1,inconclusive: -27.1%,
CCOC(=O)N1CCN(C(=O)Cn2cc3c(n2)CCCC3)CC1,inconclusive: -24.5%,
CC(C)Oc1ccc(C(=O)Nc2nnc(C3=COCCO3)o2)cc1,inconclusive: -9.27%,
CCN1CCN(C(=O)NC(c2ccc(C)c(F)c2)C(Cl)Cl)CC1 (stereo unspecified),inconclusive: 4.06%,
Cc1ccc(S(=O)(=O)N(C)C)cc1NC(=S)Nc1cccc2ccccc12,,"inconclusive: 5.17 µM [activator, full curve]"
CCOC(=O)C(NC(=O)Nc1ccc(O)cc1)(c1ccccc1)C(F)(F)F (stereo unspecified),inactive: 2.59%,
O=C(NCCC1CCCCN1S(=O)(=O)c1ccccc1)C(=O)NCCN1CCOCC1 (stereo unspecified),,"inconclusive: 4.11 µM [falling, full curve, poor fit]"
C/C(=N\NC(=O)C1(C)CC1(Br)Br)c1ccc([N+](=O)[O-])cc1 (stereo unspecified),inconclusive: 0.405%,
COc1ccc(C(=O)OC(C)C(=O)NC2CCCC2)cc1S(=O)(=O)N1CCOCC1 (stereo unspecified),,"inconclusive: 0.0517 µM [activator, full curve, poor fit]"
COc1cc(C2CC(=O)N3CN(Cc4ccccc4)CSC3=C2C#N)ccc1OCc1ccccc1 (stereo unspecified),inconclusive: 22.1% [at 9.22 µM],
CCCc1cc(=O)[nH]c(SCC(=O)N2N=C(c3ccc(Cl)cc3)CC2c2ccco2)n1 (stereo unspecified),inconclusive: -28.4%,

# More results follow:

SMILES,"lipid storage change, negative = inhibition",Potency
CCN1CCN(S(=O)(=O)c2ccc(Cl)c(C(=O)N(C)CCOc3ccc(Cl)cc3)c2)CC1,,"inconclusive: 10.3 µM [activator, partial curve]"
Cc1ccc(S(=O)(=O)Nc2nc(C)c(C(=O)NNS(=O)(=O)c3cc(C)ccc3C)s2)cc1,,"inconclusive: 29.1 µM [activator, partial curve]"
CCOc1ccc(S(=O)(=O)N2CCC(C(=O)NCc3cccnc3)CC2)cc1Cl,inconclusive: 71.1%,
Nc1cccc(-c2cc(-c3ccccc3)nc(-c3cccc(N)c3)n2)c1,inconclusive: -6.5%,
CNc1ccccc1NC(=O)C1CCCN1C(=O)OCc1ccccc1 (stereo unspecified),,"inconclusive: 29.1 µM [activator, single point]"
CCOc1ccc(S(=O)(=O)N2CCN(C(=O)CN3C(=O)NC(C)(C)C3=O)CC2)cc1,,"inconclusive: 4.11 µM [activator, single point]"
Cc1ccc(S(=O)(=O)N2CCN(C(=O)COC(=O)c3c(C)noc3C)CC2)c(C)c1,inconclusive: -13.7%,
Cc1ccc(NC(=O)COC(=O)CCC(=O)c2cccs2)c(Br)c1,inconclusive: 15.6%,
COc1cccc(CNC(=O)c2ccc3c(c2)N(C)CCS3)c1OC,,"inconclusive: 8.2 µM [falling, partial curve]"
CCC(CC)NC(=O)C1CCN(c2ccc(S(=O)(=O)N3CCOCC3)cc2[N+](=O)[O-])CC1,inconclusive: 13.1%,
CCOc1ccccc1OCC(=O)Nc1cccc(S(=O)(=O)NC2=NCCCCC2)c1,inconclusive: 19%,
O=C(O)/C(=C\c1ccc(Cl)c([N+](=O)[O-])c1)c1ccc(S(=O)(=O)N2CCCC2)s1,inconclusive: 19%,
C#CCSc1n[nH]c(-c2ccco2)n1,inconclusive: 6.92%,
CCN1C(=O)c2ccccc2S(=O)c2ccc(C(=O)N3CCN(C(=O)c4ccco4)CC3)cc21 (stereo unspecified),,"inconclusive: 14.6 µM [activator, single point]"
C/C(N)=C(/C#N)C(=O)CSc1nc2ccccc2c(=O)n1CCCO,inconclusive: 82.6%,
COC(=O)c1ccc(Cl)cc1N(Cc1c(F)cccc1Cl)S(C)(=O)=O,inconclusive: -7.56%,
O=C(Nc1ccc(N2CCCCCC2)cc1)c1cccc(S(=O)(=O)N2CCOCC2)c1,,"inconclusive: 29.1 µM [falling, single point]"
O=c1[nH]c2cccc(Cl)c2n(CCNc2ncc(C(F)(F)F)cc2Cl)c1=O,inconclusive: -21.7%,
Cc1ccc(-n2c(SCC(=O)Nc3nccs3)nc3c(c2=O)SCC3)cc1,,"inconclusive: 1.64 µM [activator, partial curve, poor fit]"
Cc1c(C(=O)NCCCN2CCOCC2)sc2ncnc(N3CCN(c4ccccc4)CC3)c12,,"inconclusive: 0.291 µM [activator, partial curve, poor fit]"
CCn1cc(Cl)c(C(=O)Nc2cccc(CN3CCOCC3)c2)n1,,"inconclusive: 29.1 µM [falling, single point]"
Cc1ccc(S(=O)(=O)NCc2ccco2)cc1C,,active: 10.3 µM
COc1ccc(/C(N)=N/OC(=O)N2CCOCC2)cc1,,"inconclusive: 0.82 µM [falling, full curve]"
